Results: PubChem BioAssay AID2685 (National Center for Advancing Translational Sciences (NCATS), 2010)
This is one part of the list. Further columns of the screen follow, without active or inactive calls. Most of these compounds were active or inconclusive in the main read-out, so they are no random draw. Words in brackets tell the shape of the fitted curve; partial curves, single points and poor fits give uncertain potencies.

Experiment: qHTS Assay for Lipid Storage Modulators in Drosophila S3 Cells;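 for cell number change: cells counted by Cell Tracker Red CMTPX staining in the red channel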
Details: BODIPY lipid droplet fluorescence, 18-24 h; for cell number change: measured here: cell count max response, cells fed with added oleic acid
How it was run: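 Drosophila S3 cells got compounds at several concentrations plus oleic acid (400 uM solution). Laser-scanning cytometry with 488 nm excitation read lipid droplets at 500-530 nm and cells at 575-640 nm. Percent activity was relative to 20 uM Triacsin C.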

[1] = measured here: cell number channel AC50, cells fed with added oleic acid
[2] = measured here: lipid fluorescence (Fed channel) AC50, cells fed with added oleic acid

SMILES | cell number change [%] | AC50 [1] | AC50 [2]
CCCCC(=O)Nc1ccc(C(=O)Nc2ccc(S(=O)(=O)Nc3nccc(C)n3)cc2)cc1 | -100 | 4.11 µM [falling, partial curve] | –
Cc1ncc([N+](=O)[O-])n1CC(=O)Nc1ccc2c(c1)OCO2 | -28.6 | – | 0.731 µM [falling, full curve]
O=C(N/N=C/c1cccnc1)c1ccc([N+](=O)[O-])cc1Cl | -26.7 | – | 8.2 µM [falling, partial curve]
O=[N+]([O-])c1cnccc1Nc1ccccc1 | -33.9 | 16.4 µM [falling, single point] | 5.8 µM [rising, single point]
O=[N+]([O-])c1ccc2c(c1)nc1n2CCN(C2CCCCC2)C1 | 5.23 | – | –
CC(OC(=O)c1ccc([N+](=O)[O-])s1)C(=O)Nc1ncc(Cl)cc1Cl (centres undefined) | -18.2 | – | 29.1 µM [falling, single point]
CO[C@@]1(NC(=O)C2SC(=C(C(N)=O)C(=O)O)S2)C(=O)N2C(C(=O)O)=C(CSc3nnnn3C)CS[C@@H]21 (some centres undefined) | -20.6 | 0.184 µM [falling, full curve, poor fit] | 0.116 µM [falling, full curve, poor fit]
COC(=O)c1cccc(Nc2cc(C)nc(-c3ccccc3O)n2)c1 | -55.9 | – | –
CSc1ccc(CN(C)CC(=O)Nc2ccccc2C(=O)NC2CC2)cc1 | 5.99 | – | 29.1 µM [falling, single point]
CCOc1ccc(N(CC(=O)Nc2cccnc2)S(=O)(=O)c2ccc(C)cc2)cc1 | 70.4 | 29.1 µM [rising, single point] | –
COc1cc(OC)c(C#N)c(S(=O)Cc2ccccc2)c1 (centres undefined) | 39.6 | 29.1 µM [rising, single point] | 4.11 µM [falling, single point]
O=C(Nc1ncc2c(n1)-c1ccccc1OC2)c1ccc(F)cc1 | 51.5 | 29.1 µM [rising, single point] | 6.51 µM [rising, partial curve]
Cc1cc(C(=O)Nc2cccc(S(=O)(=O)N3CCCCC3)c2)c2ccccc2n1 | 15.9 | 0.00517 µM [rising, full curve, poor fit] | 0.00461 µM [rising, full curve, poor fit]
O=C(c1ccccc1)c1ccc2nc(-c3ccc(NC(=O)c4ccccc4F)cc3)[nH]c2c1 | -51.4 | – | 14.6 µM [falling, partial curve]
CC(=O)N1CCN(CC(=O)Nc2ccccc2C(=O)NCc2ccc(C)cc2)CC1 | 1.32 | – | 0.631 µM [rising, partial curve, poor fit]
CCCCOc1ccc(C(=O)NCC2(c3ccc(OC)cc3)CCOCC2)cc1 | -44 | 29.1 µM [falling, single point] | 1.16 µM [falling, partial curve]
C=CCSc1[nH]c(=O)cc(C)c1C(N)=O | -55.5 | 7.31 µM [falling, partial curve] | 5.8 µM [falling, full curve]
CCN(C(=O)CSc1nnc(-c2cccs2)n1N)c1c(N)n(Cc2ccccc2)c(=O)[nH]c1=O | 5.5 | – | 29.1 µM [falling, single point]
C=CCn1c(SCc2cc(=O)n3ccsc3n2)nc2scc(C3CC3)c2c1=O | 12.8 | – | 1.3 µM [rising, full curve, poor fit]
CC(=O)N=c1scc(-c2ccccc2)n1-c1cccc(O)c1 | 29.6 | – | 29.1 µM [falling, single point]

SMILES | cell number change [%] | AC50 [1] | AC50 [2]
CCOC(=O)c1ccccc1N=Cc1c(O)c2ccccc2oc1=O | 10.1 | – | 29.1 µM [rising, single point]
O=C(NC1CCCCC1)C(c1ccc(F)cc1)N(Cc1cccs1)C(=O)CN1C(=O)c2ccccc2S1(=O)=O (centres undefined) | -1.48 | – | 1.16 µM [falling, single point]
COc1ccc(N2CCN(C(=O)c3ccc(S(=O)(=O)N4CCCC4)cc3)CC2)cc1 | -41 | 1.16 µM [falling, full curve] | –
CCOC(=O)CCSCC(=O)Nc1nnc(C)s1 | -23.7 | 2.59 µM [falling, full curve, poor fit] | 4.11 µM [falling, single point]
COC(=O)c1ccccc1NC(=O)Nc1nnc(N2CCC(C)CC2)s1 | 16.2 | – | 29.1 µM [rising, single point]
CC(/C=C/c1ccccc1)=N\Nc1ccccc1[N+](=O)[O-] | -69.9 | 2.91 µM [falling, full curve, poor fit] | 2.06 µM [falling, full curve]
NC(=O)C1CCN(c2cc(Cl)nc(N)n2)CC1 | -56.3 | – | 0.651 µM [falling, full curve, poor fit]
O=C(O)c1cc(NCc2ccccc2C(F)(F)F)ccc1N1CCOCC1 | 24.3 | 8.2 µM [rising, partial curve, poor fit] | 0.461 µM [rising, partial curve]
CCCCCCSc1nsc(NC(=O)CC(C)C)n1 | -24.7 | – | 0.0326 µM [falling, full curve]
Cc1ccc(C)c(-c2cc(C(=O)NCc3cccs3)c3ccccc3n2)c1 | 5.5 | 6.51 µM [rising, partial curve, poor fit] | –
O=C(O)CSc1cc(NS(=O)(=O)c2ccc(Br)cc2)c2ccccc2c1O | -31.5 | 29.1 µM [falling, single point] | 29.1 µM [falling, single point]
CC(C)n1cc(CN2CCC(n3nccc3NC(=O)C3CCCC3)CC2)cn1 | 7.95 | – | 1.16 µM [rising, full curve, poor fit]
Cc1ccccc1NC(=O)Cn1c(C)nc2ccc(N)cc2c1=O | 16.2 | – | 1.84 µM [falling, single point]
O=C(COC(=O)c1cccc(N2C(=O)c3ccccc3C2=O)c1)Nc1ccccc1 | – | – | 10.3 µM [rising, partial curve]
O=[N+]([O-])c1ccc(NCCN2CCOCC2)c([N+](=O)[O-])c1 | 28.8 | 0.82 µM [rising, full curve, poor fit] | –
CN1C(=O)c2ccc(N3CCCC3)cc2C1=O | -7.59 | – | –
Cc1ccc(CN2CCSc3ccc(C(=O)NC4CCCC4)cc32)cc1 | – | – | 29.1 µM [falling, single point]
O=C(O)CN1C(=O)NC2(CCc3ccccc32)C1=O (centres undefined) | 21.9 | – | –
O=C(O)CCc1ccc(-c2ccccc2)n1NC(=O)c1ccco1 | -9.53 | – | 6.51 µM [rising, single point]
CC(=O)c1cccc(S(=O)(=O)Nc2ccc(N3CCOCC3)cc2)c1 | -14.1 | – | –

SMILES | cell number change [%] | AC50 [1] | AC50 [2]
CCc1ccc(C(=O)Cn2ncc(Cl)c(Cl)c2=O)cc1 | -27.9 | – | 6.51 µM [falling, single point]
CC(C)Cn1c(N)c(C(=O)COC(=O)Cc2cccs2)c(=O)n(C)c1=O | -35.9 | – | 18.4 µM [falling, single point]
CC(OC(=O)C1CCN(S(=O)(=O)c2ccccc2C(F)(F)F)CC1)C(=O)N(C)Cc1ccccc1 (centres undefined) | 14.8 | – | 11.6 µM [falling, partial curve]
O=C(O)CSCc1nc2scc(-c3ccccc3)c2c(=O)[nH]1 | -4.37 | – | –
O=C(Nc1ccc(N2CCOCC2)cc1N1CCOCC1)c1ncoc1-c1cccc(F)c1 | -11.5 | – | –
COc1cc(OC)cc(C(=O)Nc2nc(CC(=O)NC(C)c3ccccc3)cs2)c1 (centres undefined) | -16.8 | – | 6.51 µM [rising, single point]
Cc1cccc(C)c1NCC(=O)N1CCN(Cc2ccccc2)CC1 | 21.5 | – | 0.58 µM [rising, full curve, poor fit]
Cc1nc2nc(C)c(CCC(=O)Nc3ccc4c(c3)OCO4)c(C)n2n1 | -7.64 | – | 1.84 µM [rising, partial curve, poor fit]
Cc1cccc(OCC(=O)Nc2ccc3c(c2)OCO3)c1C | -16.3 | – | –
NC(=O)C1CCN(C(=O)CN(C2CCCCC2)S(=O)(=O)c2ccc(F)cc2)CC1 | -23.8 | 0.116 µM [falling, full curve, poor fit] | –
CCN(CC(=O)Nc1ccc(NC(C)=O)cc1)C(=O)c1sc2nc3n(c(=O)c2c1C)CCC3 | 5.44 | – | 2.31 µM [rising, partial curve]
COc1ccc(C)cc1S(=O)(=O)N1CCC(C(=O)NCCC2=CCCCC2)CC1 | 57.5 | 29.1 µM [rising, single point] | –
CCOC(=O)c1ccccc1NC(=O)COC(=O)CCC(=O)c1ccc(C)cc1 | 14.5 | – | –
O=C(N/N=C/c1ccc(O)cc1)c1cc(-c2ccccc2)nc2ccccc12 | 9.01 | – | –
Cc1noc(C)c1COc1ccc(C(=O)OCC(=O)N2c3ccccc3NC(=O)C2(C)C)cc1 | – | – | 0.13 µM [falling, full curve, poor fit]
CC(Sc1ccc(Cl)cc1)C(=O)NCC1CCCO1 (centres undefined) | 1.73 | – | –
CCC(C)(C)n1nnnc1C(c1ccc(C)cc1)N(Cc1ccco1)Cc1cccs1 (centres undefined) | 14.3 | – | 0.058 µM [falling, full curve, poor fit]
CCOC(=O)N1CCN(S(=O)(=O)c2cc(OCC(=O)NC3CCCCC3)c(C)cc2Cl)CC1 | – | 6.51 µM [rising, single point] | –
COc1ccc2nc(NC(=O)c3cccc(-c4cc5ccccc5oc4=O)c3)sc2c1 | -7.14 | – | 8.2 µM [rising, single point]

In a second layout: 2 of the compounds above.
Cc1ncc([N+](=O)[O-])n1CC(=O)Nc1ccc2c(c1)OCO2
  cell number change [%]: -28.6
  AC50 [2]: 0.731 µM [falling, full curve]
O=C(N/N=C/c1cccnc1)c1ccc([N+](=O)[O-])cc1Cl
  cell number change [%]: -26.7
  AC50 [2]: 8.2 µM [falling, partial curve]
